Test results published in patent US9453062B2 (Beijing Hanmi Pharmaceutical Co., Ltd., priority 2011, dated 2016).
One purity is given for all peptides; the source may state it once.

Assay: general procedure: Fmoc solid-phase peptide synthesis; Fmoc-Rink amide resin; DIC/HOBt
Conditions: whole synthesis, scale 0.05 mmol

Row | Substance | final HPLC purity
1 | Tyr-Aib-Glu-Gly-Thr-Phe-Ile-Ser-Asp-Tyr-Ser-Ile-Ala-Met-Asp-Lys-Ile-His-Gln-Gln-Asp-Phe-Val-Asn-Trp-Leu-Leu-Ala-Gln-Cys(NH2) | more than 90%
2 | Tyr-Aib-Glu-Gly-Thr-Phe-Thr-Ser-Asp-Tyr-Ser-Ile-Tyr-Met-Glu-Lys-Glu-Ala-Val-Arg-Glu-Phe-Ile-Ala-Trp-Leu-Val-Lys(3-Maleimidopropionic acyl)-Gly(NH2) | more than 90%
